Experimental data reported in patent US10035818B2 (Bayer Pharma Aktiengesellschaft, priority 2011, dated 2018).

Assay: general procedure: Fmoc solid-phase peptide synthesis; Tentagel based Rink amide resin; TBTU/DIEA
Conditions: conjugation step, of theory

Substance | conjugation yield [%]
O-{[(3 S)-3-Amino-4-({(2R)-1-amino-3-[(2,5-dioxo-1-{3-oxo-3-[(2-{ω-methoxy-poly-oxyethylen[40 kDa]}ethyl)amino]propyl}pyrrolidin-3-yl)sulfanyl]-1-oxopropan-2-yl}amino)-4-oxobutyl]carbamoyl}-L-tyrosyl-adrenomedullin(2-52) | 33
O-{[(4S)-4-Amino-5-({(2R)-1-amino-3-[(2,5-dioxo-1-{3-oxo-3-[(2-{ω-methoxy-poly-oxyethylen[40 kDa]}ethyl)amino]propyl}pyrrolidin-3-yl)sulfanyl]-1-oxopropan-2-yl}amino)-5-oxopentyl]carbamoyl}-L-tyrosyl-adrenomedullin(2-52) | 17
